Results are given in words; binding and its absence hold for the method and conditions named. Some entries that bind do so weakly or less than the wild type.
Columns and labels:
[1] = target: truncated mGlu2 in which the 26 C-terminal amino acids were deleted (HA-ST-mGlu2-Δ846) (rat) (UniProt P31421); test: two-photon scanning number and brightness (sN&B) fluctuation microscopy; live cultured rat hippocampal neurons, SNAP-tag labelled with Alexa488, with agonist and PAM (10 nM LY379268 + 3 μM BINA) during labelling and imaging; numbers for 90-600 subunits/Veff
[2] = target: truncated mGlu2 in which the 26 C-terminal amino acids were deleted (HA-ST-mGlu2-Δ846) (rat) (UniProt P31421); test: two-photon scanning number and brightness (sN&B) fluctuation microscopy; live cultured rat hippocampal neurons, cell-surface SNAP-tagged receptor labelled with Alexa488, imaging buffer pH 7.3, no ligand (basal); numbers for expression of 90-600 subunits/Veff; brightness normalised to monomeric Alexa488
ST-mGlu2-V699C (rat) = ST-mGlu2-V699C (rat) (UniProt P31421); test: two-photon scanning number and brightness (sN&B) fluctuation microscopy; data not shown; neurons, ST-mGlu2-V699C cross-linked with CuP

Sequences of proteins named here, by UniProt entry; tags and fusion partners are left off. A change or cut given only in a name is not applied to a line headed by its entry. A line that says so, or that is headed by a name, gives the form on record, which may keep a tag or linker. Residues count along the entry.
truncated mGlu2 in which the 26 C-terminal amino acids were deleted (HA-ST-mGlu2-Δ846) (P31421, residues 19-846): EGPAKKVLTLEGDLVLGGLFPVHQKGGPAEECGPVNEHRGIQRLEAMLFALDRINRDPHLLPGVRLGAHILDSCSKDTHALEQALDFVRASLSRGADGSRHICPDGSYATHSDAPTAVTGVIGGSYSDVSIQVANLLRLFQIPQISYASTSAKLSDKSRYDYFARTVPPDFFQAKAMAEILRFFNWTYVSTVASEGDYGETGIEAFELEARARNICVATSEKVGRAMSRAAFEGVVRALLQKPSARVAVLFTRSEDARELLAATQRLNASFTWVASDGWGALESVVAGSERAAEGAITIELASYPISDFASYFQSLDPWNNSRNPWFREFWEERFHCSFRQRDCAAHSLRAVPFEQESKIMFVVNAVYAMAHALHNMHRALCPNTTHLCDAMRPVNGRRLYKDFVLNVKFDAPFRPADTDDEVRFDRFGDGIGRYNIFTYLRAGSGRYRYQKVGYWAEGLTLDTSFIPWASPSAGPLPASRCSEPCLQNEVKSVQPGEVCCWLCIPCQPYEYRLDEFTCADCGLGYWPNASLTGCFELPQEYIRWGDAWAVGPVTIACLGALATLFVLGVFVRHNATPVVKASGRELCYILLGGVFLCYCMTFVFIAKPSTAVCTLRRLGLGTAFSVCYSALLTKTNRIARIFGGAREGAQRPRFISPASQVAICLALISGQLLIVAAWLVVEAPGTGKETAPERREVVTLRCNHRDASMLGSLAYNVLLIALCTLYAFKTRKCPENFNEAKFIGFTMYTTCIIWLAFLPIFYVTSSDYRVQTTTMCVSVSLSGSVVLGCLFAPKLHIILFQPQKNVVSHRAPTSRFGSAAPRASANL
ST-mGlu2-V699C (P31421, form named): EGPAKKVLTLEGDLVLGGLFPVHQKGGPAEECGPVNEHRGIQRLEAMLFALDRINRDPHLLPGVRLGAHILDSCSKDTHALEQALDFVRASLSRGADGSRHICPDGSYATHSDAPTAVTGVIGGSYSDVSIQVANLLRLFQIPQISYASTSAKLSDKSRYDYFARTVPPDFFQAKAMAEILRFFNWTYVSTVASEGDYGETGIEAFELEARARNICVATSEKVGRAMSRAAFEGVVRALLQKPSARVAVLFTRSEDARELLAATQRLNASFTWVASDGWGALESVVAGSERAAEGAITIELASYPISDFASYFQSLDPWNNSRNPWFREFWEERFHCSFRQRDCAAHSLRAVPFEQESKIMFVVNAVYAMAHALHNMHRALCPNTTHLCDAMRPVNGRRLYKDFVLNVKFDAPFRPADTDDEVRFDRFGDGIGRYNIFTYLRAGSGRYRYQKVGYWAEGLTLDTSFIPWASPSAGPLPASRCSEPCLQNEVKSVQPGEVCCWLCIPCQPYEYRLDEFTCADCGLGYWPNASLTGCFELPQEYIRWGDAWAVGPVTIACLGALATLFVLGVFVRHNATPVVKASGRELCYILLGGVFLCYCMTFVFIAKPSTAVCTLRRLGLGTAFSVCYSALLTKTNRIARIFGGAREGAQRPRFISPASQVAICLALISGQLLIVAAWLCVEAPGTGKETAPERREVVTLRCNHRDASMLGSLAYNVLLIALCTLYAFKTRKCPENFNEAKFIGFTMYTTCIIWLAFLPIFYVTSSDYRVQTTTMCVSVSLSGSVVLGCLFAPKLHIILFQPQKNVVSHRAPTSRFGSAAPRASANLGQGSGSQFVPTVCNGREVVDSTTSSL

Substance: truncated mGlu2 in which the 26 C-terminal amino acids were deleted (HA-ST-mGlu2-Δ846) (from UniProt P31421 19-846) (receptor)
- binding [1]: binds
- binding [2]: binds

Substance: ST-mGlu2-V699C (from UniProt P31421 19-872) (receptor)
- binding (ST-mGlu2-V699C (rat)): binds

— paper PMC6039492
